# The supplement of paper PMC8728848
# Some of the results follow.
# Biological target: Neu5Gc(b2-6)Gal(b1-4)GlcNAc
# Test: glycan array binding signal (z-score within array); higher = stronger binding
# Settings: glycan notation: IUPAC condensed, linker removed
# Method in brief: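 Negative Z-scores can be read as non-binding. The Z-score is calculated within each array and then averaged across arrays of one protein sequence at different concentrations or buffers and across linkers. Arrays, 3228 in all, were curated from the Consortium for Functional Glycomics database and kept only where the protein sequence was available.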
binder,measurement,value
FliC (Clostridium difficile) (protein) MRVNTNVSALIANNQMGRNVNGQSKSMEKLSSGVRIKRAADDAAGLAISEKMRAQIKGLDQAGRNVQDGISVVQTAEGSLEETGNILQRMRTLSLQSANEINNTEEREKIADELTQLKDEIERISSSTEFNGKKLLDGTSSTIRLQVGASYGTNVSGTSNNNNEIKIQLVNTASIMASAGITTASIGSMKAGGTTGTDAAKTMVSSLDAALKSLNSSRAKLGAQQNRLESTQNNLNNTLENVTAAESRIRDTDVASEMVNLSKMNILVQASQSMLAQANQQPQGVLQLLG,glycan array binding signal (z-score),-0.188
